These are yes or no findings as the source states them, for the method shown. Some binding calls cover weakened binding; strength is not graded here.
Target: mouse BAFF (Genentech, Inc.) (mouse) (UniProt Q9WU72)
Experiment: sandwich ELISA; human BCMA-Fc coated at 0.5 ug/mL captures mouse BAFF (serum samples and standard curve)

By UniProt entry, the sequences of proteins in these tests, tags left out. Residues count along the entry.
UniProt Q9WU72, residues 127-309: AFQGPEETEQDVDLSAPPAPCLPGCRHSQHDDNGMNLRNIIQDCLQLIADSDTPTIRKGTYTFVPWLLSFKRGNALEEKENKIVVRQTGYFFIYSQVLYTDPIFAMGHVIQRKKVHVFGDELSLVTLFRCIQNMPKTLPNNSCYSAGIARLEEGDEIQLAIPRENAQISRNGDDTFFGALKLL
UniProt Q02223, residues 5-51: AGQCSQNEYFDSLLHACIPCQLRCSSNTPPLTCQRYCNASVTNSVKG

binding: binds
Substance: human BCMA-Fc (Genentech, Inc.) (from UniProt Q02223 5-51) (Fc fusion)
